# Data reported in the supplement of paper PMC11438910.
# The list shows a part of the results. Most of these values are background signal.
# What was measured:
# Experiment in all cases: fluorescence intensity of antibody binding to polysaccharide-coupled beads; higher = stronger binding
# [1] = molecular target: pneumococcal polysaccharide Pn23F
# [2] = molecular target: pneumococcal polysaccharide Pn24A
# [3] = molecular target: pneumococcal polysaccharide Pn24B
# [4] = molecular target: pneumococcal polysaccharide Pn24F
# [5] = molecular target: pneumococcal polysaccharide Pn25A
# [6] = molecular target: pneumococcal polysaccharide Pn25F
# [7] = molecular target: pneumococcal polysaccharide Pn27
# [8] = molecular target: pneumococcal polysaccharide Pn28A
# [9] = molecular target: pneumococcal polysaccharide Pn28F
# [10] = molecular target: pneumococcal polysaccharide Pn29
# [11] = molecular target: pneumococcal polysaccharide Pn3
# [12] = molecular target: pneumococcal polysaccharide Pn31
# [13] = molecular target: pneumococcal polysaccharide Pn32A
# [14] = molecular target: pneumococcal polysaccharide Pn32F
# [15] = molecular target: pneumococcal polysaccharide Pn33A
# [16] = molecular target: pneumococcal polysaccharide Pn33B
# [17] = molecular target: pneumococcal polysaccharide Pn33C
# [18] = molecular target: pneumococcal polysaccharide Pn33D
# [19] = molecular target: pneumococcal polysaccharide Pn33F
# [20] = molecular target: pneumococcal polysaccharide Pn34
# [21] = molecular target: pneumococcal polysaccharide Pn35A
# [22] = molecular target: pneumococcal polysaccharide Pn35B
# [23] = molecular target: pneumococcal polysaccharide Pn35C
# [24] = antibody concentration 2.8593 ng/mL
# [25] = antibody concentration 15.2894 ng/mL
# [26] = antibody concentration 81.7561 ng/mL
# [27] = antibody concentration 437.17 ng/mL
# [28] = antibody concentration 2337.65 ng/mL
# [29] = antibody concentration 12500 ng/mL
# [30] = antibody concentration 0.1 ng/mL
# [31] = antibody concentration 0.534724 ng/mL
binder,measurement,setting,value
3S41.4 (protein) chain 1: EVQLVESGGGLVQPGGSLRLSCATSGFTFSNYWMYWFRQAPGKGLEWVSTISGSSTNTYYSGSVKGRFTISRDNAKNTLYLQMNSLRAEDTAVYYCARRGTDSSHWYFDLWGPGTPITVSS chain 2: EIVMTQSPATLSLSPGERATLSCRASQSVSSNLAWYQQKPGQGPRLLIYDASNRATGIPDRFGGSGSGTDFTLTISSLEPEDVGVYYCQQESNWPLTFGGGTKVEIK,fluorescence intensity,[1]; [24],16.5 MFI
same,fluorescence intensity,[1]; [25],18 MFI
same,fluorescence intensity,[1]; [26],17.8 MFI
same,fluorescence intensity,[1]; [27],18.2 MFI
same,fluorescence intensity,[1]; [28],20.8 MFI
same,fluorescence intensity,[1]; [29],34.8 MFI
same,fluorescence intensity,[2]; [30],16 MFI
same,fluorescence intensity,[2]; [31],14 MFI
same,fluorescence intensity,[2]; [24],16 MFI
same,fluorescence intensity,[2]; [25],14.5 MFI
same,fluorescence intensity,[2]; [26],14.8 MFI
same,fluorescence intensity,[2]; [27],15 MFI
same,fluorescence intensity,[2]; [28],18 MFI
same,fluorescence intensity,[2]; [29],32 MFI
same,fluorescence intensity,[3]; [30],18.5 MFI
same,fluorescence intensity,[3]; [31],17.5 MFI
same,fluorescence intensity,[3]; [24],18 MFI
same,fluorescence intensity,[3]; [25],17.8 MFI
same,fluorescence intensity,[3]; [26],16.8 MFI
same,fluorescence intensity,[3]; [27],19 MFI
same,fluorescence intensity,[3]; [28],25.5 MFI
same,fluorescence intensity,[3]; [29],48.8 MFI
same,fluorescence intensity,[4]; [30],16 MFI
same,fluorescence intensity,[4]; [31],18 MFI
same,fluorescence intensity,[4]; [24],15.8 MFI
same,fluorescence intensity,[4]; [25],17.5 MFI
same,fluorescence intensity,[4]; [26],18.8 MFI
same,fluorescence intensity,[4]; [27],22.8 MFI
same,fluorescence intensity,[4]; [28],27.5 MFI
same,fluorescence intensity,[4]; [29],46.2 MFI
same,fluorescence intensity,[5]; [30],22.2 MFI
same,fluorescence intensity,[5]; [31],23 MFI
same,fluorescence intensity,[5]; [24],23 MFI
same,fluorescence intensity,[5]; [25],22.8 MFI
same,fluorescence intensity,[5]; [26],23.5 MFI
same,fluorescence intensity,[5]; [27],23.5 MFI
same,fluorescence intensity,[5]; [28],28.5 MFI
same,fluorescence intensity,[5]; [29],40 MFI
same,fluorescence intensity,[6]; [30],29.5 MFI
same,fluorescence intensity,[6]; [31],29 MFI
same,fluorescence intensity,[6]; [24],30 MFI
same,fluorescence intensity,[6]; [25],29.5 MFI
same,fluorescence intensity,[6]; [26],29 MFI
same,fluorescence intensity,[6]; [27],30 MFI
same,fluorescence intensity,[6]; [28],31 MFI
same,fluorescence intensity,[6]; [29],44.2 MFI
same,fluorescence intensity,[7]; [30],16 MFI
same,fluorescence intensity,[7]; [31],16 MFI
same,fluorescence intensity,[7]; [24],17 MFI
same,fluorescence intensity,[7]; [25],16.5 MFI
same,fluorescence intensity,[7]; [26],16.5 MFI
same,fluorescence intensity,[7]; [27],17.5 MFI
same,fluorescence intensity,[7]; [28],24.5 MFI
same,fluorescence intensity,[7]; [29],95.8 MFI
same,fluorescence intensity,[8]; [30],25.5 MFI
same,fluorescence intensity,[8]; [31],26.5 MFI
same,fluorescence intensity,[8]; [24],26 MFI
same,fluorescence intensity,[8]; [25],26 MFI
same,fluorescence intensity,[8]; [26],25.8 MFI
same,fluorescence intensity,[8]; [27],27.5 MFI
same,fluorescence intensity,[8]; [28],27.5 MFI
same,fluorescence intensity,[8]; [29],39 MFI
same,fluorescence intensity,[9]; [30],28.5 MFI
same,fluorescence intensity,[9]; [31],28.5 MFI
same,fluorescence intensity,[9]; [24],27.2 MFI
same,fluorescence intensity,[9]; [25],28.5 MFI
same,fluorescence intensity,[9]; [26],27.5 MFI
same,fluorescence intensity,[9]; [27],29.8 MFI
same,fluorescence intensity,[9]; [28],31.2 MFI
same,fluorescence intensity,[9]; [29],59.2 MFI
same,fluorescence intensity,[10]; [30],16.8 MFI
same,fluorescence intensity,[10]; [31],13.8 MFI
same,fluorescence intensity,[10]; [24],16 MFI
same,fluorescence intensity,[10]; [25],16 MFI
same,fluorescence intensity,[10]; [26],16 MFI
same,fluorescence intensity,[10]; [27],16.5 MFI
same,fluorescence intensity,[10]; [28],20 MFI
same,fluorescence intensity,[10]; [29],56 MFI
same,fluorescence intensity,[11]; [30],16.2 MFI
same,fluorescence intensity,[11]; [31],40.2 MFI
same,fluorescence intensity,[11]; [24],153 MFI
same,fluorescence intensity,[11]; [25],791 MFI
same,fluorescence intensity,[11]; [26],2640 MFI
same,fluorescence intensity,[11]; [27],9590 MFI
same,fluorescence intensity,[11]; [28],14600 MFI
same,fluorescence intensity,[11]; [29],29300 MFI
same,fluorescence intensity,[12]; [30],14 MFI
same,fluorescence intensity,[12]; [31],14 MFI
same,fluorescence intensity,[12]; [24],13 MFI
same,fluorescence intensity,[12]; [25],13.5 MFI
same,fluorescence intensity,[12]; [26],14 MFI
same,fluorescence intensity,[12]; [27],14 MFI
same,fluorescence intensity,[12]; [28],17.5 MFI
same,fluorescence intensity,[12]; [29],62.5 MFI
same,fluorescence intensity,[13]; [30],14.5 MFI
same,fluorescence intensity,[13]; [31],16.8 MFI
same,fluorescence intensity,[13]; [24],17.2 MFI
same,fluorescence intensity,[13]; [25],17.5 MFI
same,fluorescence intensity,[13]; [26],16.8 MFI
same,fluorescence intensity,[13]; [27],20 MFI
same,fluorescence intensity,[13]; [28],23.8 MFI
same,fluorescence intensity,[13]; [29],43.2 MFI
same,fluorescence intensity,[14]; [30],25 MFI
same,fluorescence intensity,[14]; [31],26 MFI
same,fluorescence intensity,[14]; [24],26.5 MFI
same,fluorescence intensity,[14]; [25],26 MFI
same,fluorescence intensity,[14]; [26],27.5 MFI
same,fluorescence intensity,[14]; [27],29.5 MFI
same,fluorescence intensity,[14]; [28],37.5 MFI
same,fluorescence intensity,[14]; [29],60.5 MFI
same,fluorescence intensity,[15]; [30],19.5 MFI
same,fluorescence intensity,[15]; [31],18 MFI
same,fluorescence intensity,[15]; [24],18 MFI
same,fluorescence intensity,[15]; [25],16.5 MFI
same,fluorescence intensity,[15]; [26],17.8 MFI
same,fluorescence intensity,[15]; [27],21 MFI
same,fluorescence intensity,[15]; [28],50.8 MFI
same,fluorescence intensity,[15]; [29],248 MFI
same,fluorescence intensity,[16]; [30],17.5 MFI
same,fluorescence intensity,[16]; [31],17 MFI
same,fluorescence intensity,[16]; [24],18 MFI
same,fluorescence intensity,[16]; [25],17 MFI
same,fluorescence intensity,[16]; [26],17.2 MFI
same,fluorescence intensity,[16]; [27],18.5 MFI
same,fluorescence intensity,[16]; [28],18.5 MFI
same,fluorescence intensity,[16]; [29],29.2 MFI
same,fluorescence intensity,[17]; [30],19.2 MFI
same,fluorescence intensity,[17]; [31],19.5 MFI
same,fluorescence intensity,[17]; [24],18 MFI
same,fluorescence intensity,[17]; [25],19.5 MFI
same,fluorescence intensity,[17]; [26],18.8 MFI
same,fluorescence intensity,[17]; [27],18.2 MFI
same,fluorescence intensity,[17]; [28],21.5 MFI
same,fluorescence intensity,[17]; [29],50.8 MFI
same,fluorescence intensity,[18]; [30],16 MFI
same,fluorescence intensity,[18]; [31],15.8 MFI
same,fluorescence intensity,[18]; [24],15.5 MFI
same,fluorescence intensity,[18]; [25],14.5 MFI
same,fluorescence intensity,[18]; [26],16 MFI
same,fluorescence intensity,[18]; [27],17 MFI
same,fluorescence intensity,[18]; [28],18.5 MFI
same,fluorescence intensity,[18]; [29],28.5 MFI
same,fluorescence intensity,[19]; [30],13 MFI
same,fluorescence intensity,[19]; [31],13 MFI
same,fluorescence intensity,[19]; [24],12.5 MFI
same,fluorescence intensity,[19]; [25],12.5 MFI
same,fluorescence intensity,[19]; [26],13.2 MFI
same,fluorescence intensity,[19]; [27],14.5 MFI
same,fluorescence intensity,[19]; [28],23.8 MFI
same,fluorescence intensity,[19]; [29],93.5 MFI
same,fluorescence intensity,[20]; [30],14.5 MFI
same,fluorescence intensity,[20]; [31],13.2 MFI
same,fluorescence intensity,[20]; [24],14 MFI
same,fluorescence intensity,[20]; [25],13.5 MFI
same,fluorescence intensity,[20]; [26],14 MFI
same,fluorescence intensity,[20]; [27],12.5 MFI
same,fluorescence intensity,[20]; [28],15.5 MFI
same,fluorescence intensity,[20]; [29],22 MFI
same,fluorescence intensity,[21]; [30],19 MFI
same,fluorescence intensity,[21]; [31],17.5 MFI
same,fluorescence intensity,[21]; [24],16 MFI
same,fluorescence intensity,[21]; [25],16.2 MFI
same,fluorescence intensity,[21]; [26],16.5 MFI
same,fluorescence intensity,[21]; [27],17.2 MFI
same,fluorescence intensity,[21]; [28],23.5 MFI
same,fluorescence intensity,[21]; [29],75.8 MFI
same,fluorescence intensity,[22]; [30],18.5 MFI
same,fluorescence intensity,[22]; [31],17.5 MFI
same,fluorescence intensity,[22]; [24],17 MFI
same,fluorescence intensity,[22]; [25],17 MFI
same,fluorescence intensity,[22]; [26],18 MFI
same,fluorescence intensity,[22]; [27],18 MFI
same,fluorescence intensity,[22]; [28],24 MFI
same,fluorescence intensity,[22]; [29],53 MFI
same,fluorescence intensity,[23]; [30],19 MFI
same,fluorescence intensity,[23]; [31],19.5 MFI
same,fluorescence intensity,[23]; [24],20 MFI
same,fluorescence intensity,[23]; [25],20 MFI
same,fluorescence intensity,[23]; [26],18.5 MFI
same,fluorescence intensity,[23]; [27],19.5 MFI
